According to PubChem BioAssay AID493014 (National Center for Advancing Translational Sciences (NCATS), 2011):
Some of the results follow. Shown are side measurements of this screen, not its main read-out; they come without a call. The list favours compounds with an active or inconclusive main result. Potencies come from curve fits of mixed quality, noted in brackets.

Experiment: qHTS Assay to Find Inhibitors of Chronic Active B-Cell Receptor Signaling
Settings: ABC-DLBCL IkBa-CBG/CBR reporter, luminescence ratio (green luciferase fused to IkBa over red control in TMD8 lymphoma cells), 4 h
Summary of the method: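 TMD8 ABC-DLBCL cells carrying doxycycline-inducible green luciferase fused to IkappaBalpha plus unfused red luciferase were exposed to compounds (up to 46 uM) for 4 hrs at 37C. Activity came from the overlap-corrected green/red luminescence ratio.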

[1] = measured here: CBR red luminescence, cell number
[2] = measured here: IkBa-CBG green luminescence

Structure (SMILES) | AC50 [1] | AC50 [2]
N#CCC(=O)Nc1sc2c(c1C(N)=O)CCCC2 | 32.6 µM [falling, single point] | 
COc1ccc(NC(=O)c2csc(C)c2)cc1OC | 0.112 µM [rising, full curve] | 
O=c1cc(CN2CCN(S(=O)(=O)/C=C/c3ccccc3)CC2)c2ccc(O)cc2o1 |  | 23.1 µM [rising, partial curve, poor fit]
COCC1CCN(Cc2nc(-c3ccc4c(c3)OCO4)no2)C1 (stereo not drawn) | 22.4 µM [rising, single point] | 
O=C(NNC(=S)NC1CCCCC1)c1ccccc1Br | 35.5 µM [falling, single point] | 
Cc1cc(C(=O)Nc2ccc(-n3c(C)nc4ccccc4c3=O)cc2)ccc1[N+](=O)[O-] | 0.891 µM [falling, partial curve, poor fit] | 
CCC(C)Nc1ncnc2c1cnn2-c1ccc(F)cc1 (stereo not drawn) | 6.31 µM [falling, partial curve] | 
Cn1cc(S(=O)(=O)N2CCNCC2)cc1C(N)=O | 8.2 µM [rising, partial curve, poor fit] | 32.6 µM [falling, partial curve, poor fit]
CCOC(=O)c1sc(NC(=O)CSc2nccc(C)n2)nc1C | 8.91 µM [falling, partial curve] | 
C(=C\c1ccc2ccccc2n1)/c1ccccc1 | 4.47 µM [falling, partial curve] | 
COc1ccc(CN(CC2CCCO2)C(=O)c2cc3sccc3n2C)c(OC)c1 (stereo not drawn) |  | 11.2 µM [falling, single point]
O=C(NNC1OC(CO)C(O)C(O)C1O)c1cccnc1 (stereo not drawn) | 22.4 µM [falling, single point] | 
FC(F)(F)c1cccc(NC(=S)N2CCCC2)c1 | 5.01 µM [rising, single point] | 
O=C(COC(=O)c1ccco1)Nc1nnc(-c2ccccc2)o1 | 25.9 µM [falling, partial curve] | 
Fc1ccc(C2=CC(c3ccc(F)cc3)n3c(nc4ccccc43)N2)cc1 (stereo not drawn) | 5.62 µM [falling, partial curve] | 
CCOc1ccccc1NC(=O)CSc1nc(=O)n(CCCN2CCOCC2)c2c1CCC2 | 5.8 µM [falling, full curve] | 
Cc1ccc(OCC(=O)Nc2ccncc2)c(C)c1 | 35.5 µM [rising, single point] | 
Clc1ccccc1Nc1nnc(-c2ccncc2)s1 | 10.3 µM [falling, partial curve] | 
COc1ccc(CCNCC(O)COc2cccc(Br)c2)cc1OC (stereo not drawn) | 7.94 µM [falling, partial curve, poor fit] | 
Cc1cc(C)nc(NN2C(=O)C=CC2=O)n1 | 5.62 µM [rising, full curve] | 
COc1cc(C2C(C#N)=C(N)Oc3cc(N)ccc32)cc(OC)c1OC (stereo not drawn) |  | 3.66 µM [falling, partial curve]
COc1ccccc1N(CC(=O)NCCc1ccccc1)C(=O)CCC(=O)Nc1cc(C)ccn1 | 17.8 µM [falling, single point] | 

Structure (SMILES) | AC50 [1] | AC50 [2]
N=c1c2c(-c3ccccc3)c(-c3ccccc3)n(Cc3ccco3)c2ncn1CCO | 23.1 µM [falling, single point] | 
O=[N+]([O-])c1cccc(/C=N/Nc2cc(Cl)nc(-c3ccccc3)n2)c1 | 11.2 µM [falling, partial curve, poor fit] | 
COc1ccc(CNC(=O)COc2cc(=O)n(C)c3ccccc23)cc1 | 35.5 µM [falling, partial curve, poor fit] | 
COc1cc(/C=C/C(=O)OCC(=O)NCCC2=CCCCC2)cc(OC)c1OC | 1.84 µM [rising, partial curve] | 
Nc1nc(-c2cc3c(cc2Cl)OCCO3)cs1 | 35.5 µM [falling, single point] | 
COCCNC(=S)N(CCc1c(C)[nH]c2ccc(Cl)cc12)Cc1cccs1 | 22.4 µM [falling, single point] | 
CCCCCC(=O)Nc1ccc(S(=O)(=O)Nc2cc(OC)nc(OC)n2)cc1 | 1.58 µM [rising, partial curve, poor fit] | 
COc1ccc(C(=O)Nc2cccc(-c3cnc4ccccc4n3)c2)cc1 | 2.82 µM [falling, single point] | 
OC(CNCCC(c1ccccc1)c1ccccc1)COc1ccccc1 (stereo not drawn) | 22.4 µM [falling, partial curve, poor fit] | 
Cc1ccc(C(C)C)c(OCC(O)CN2CCc3ccccc3C2)c1 (stereo not drawn) | 28.2 µM [falling, partial curve, poor fit] | 
CC(NC(=O)NC1CCCCC1)c1ccc2c(c1)OCO2 (stereo not drawn) | 0.631 µM [rising, full curve, poor fit] | 
O=c1cc(-c2ccccc2)c2cc(Cl)ccc2[nH]1 | 35.5 µM [rising, single point] | 
O=C1NCCCC2c3c(cc(Br)c(O)c3Br)OC12N1CCCCC1 (stereo not drawn) | 16.4 µM [rising, single point] | 
CCOC(=O)CC(=O)CSc1nc(C)nc2c1oc1ccccc12 | 29.1 µM [rising, partial curve, poor fit] | 
COc1ccc(NC(=S)NCc2ccco2)c(OC)c1 | 29.1 µM [falling, single point] | 
O=C(NN=C1CCN(Cc2ccccc2)CC1)c1cc(Br)ccc1O | 2.24 µM [falling, full curve] | 
Cc1ccc(SC(C)c2nc(-c3cccnc3)no2)cc1 (stereo not drawn) | 5.8 µM [falling, partial curve, poor fit] | 
CCOc1ccccc1NC(=O)Cn1[nH]c(=O)c2ccccc2c1=O | 0.708 µM [falling, full curve] | 
CCOC(=O)c1ccc(NC(=S)NC(=O)c2nn(CC)cc2Br)cc1 | 29.1 µM [rising, single point] | 
COc1cccc(CC2(CO)CCCN(Cc3cc4ccccc4[nH]3)C2)c1 (stereo not drawn) | 22.4 µM [falling, single point] | 
O=c1c2ccccc2ncn1-c1ccc(Cl)cc1 | 20 µM [falling, single point] | 
CC(C)Oc1cc(O)c2c(=O)c(-c3ccc(O)cc3)coc2c1 | 9.2 µM [rising, partial curve] | 

Structure (SMILES) | AC50 [1] | AC50 [2]
COc1cc(C(=O)NCc2nnc(SCC(=O)Nc3cc(C)cc(C)c3)o2)cc(OC)c1OC | 3.55 µM [rising, partial curve, poor fit] | 
O=C(Nc1ccc(Cl)cc1)C1CCC(=O)N1Cc1ccccc1Cl (stereo not drawn) | 35.5 µM [falling, single point] | 
Cc1c(CCC(=O)NCCCn2ccnc2)c(=O)oc2cc3oc4c(c3cc12)CCCC4 | 6.31 µM [rising, partial curve, poor fit] | 6.31 µM [falling, partial curve, poor fit]
CN1C(C(=O)Nc2ccc(OC(F)(F)F)cc2)=CC(c2cccs2)=NS1(=O)=O | 35.5 µM [falling, partial curve, poor fit] | 
CC1Cc2nc(SCC(=O)N3CCOCC3)n(-c3ccccc3)c(=O)c2S1 (stereo not drawn) | 18.4 µM [rising, partial curve] | 
Cc1cc(OCC(=O)NCc2ccccn2)cc(C)c1Br | 8.2 µM [rising, partial curve, poor fit] | 
COc1cc2ccccc2cc1-c1nnc(COc2ccccc2)o1 | 3.66 µM [falling, full curve, poor fit] | 
Cc1c(NN=C(C#N)C#N)c(=O)n(-c2ccccc2)n1C | 3.55 µM [falling, partial curve, poor fit] | 
N/C(CC(=O)NC1CCCCC1)=N\OCC(=O)Nc1ccc(Cl)c(Cl)c1 | 35.5 µM [falling, single point] | 
C=C1c2cc(C)ccc2NC(=O)N1c1ccc(C)cc1 | 0.58 µM [rising, full curve, poor fit] | 
CC(=O)c1ccc(NC(=O)COC(=O)c2ccccc2N=Nc2ccc(N(C)C)cc2)cc1 | 29.1 µM [falling, single point] | 
Cc1nn(C)cc1/C=N/NC(=O)c1ccc2c(c1)OCO2 | 3.98 µM [falling, full curve] | 
COc1cc(C(=S)N2CCCCC2)ccc1OCC(=O)N1CCCC1 | 13 µM [rising, partial curve, poor fit] | 
O=C(N/N=C\c1ccc(-c2cccc(Cl)c2)o1)C(=O)NC1CCCC1 | 20 µM [rising, single point] | 
CCCCOc1cc(C(=O)NCCN(CC)CC)c2ccccc2n1 | 20 µM [falling, partial curve, poor fit] | 
O=C(O)c1ccccc1CSc1nnc2c(n1)[nH]c1ccccc12 | 4.47 µM [falling, full curve, poor fit] | 
COc1ccc(CNC(=O)c2cc(=O)c3c(C)cc(C)cc3o2)cc1 | 14.1 µM [falling, single point] | 
COc1ccccc1NS(=O)(=O)c1ccc(NN=C2CCCC2)c([N+](=O)[O-])c1 | 29.1 µM [falling, single point] | 
O=S(=O)(c1ccccc1)N(CC1CO1)c1cccc2ccccc12 (stereo not drawn) | 35.5 µM [falling, single point] | 
CN(CC(=O)Nc1ccccc1)CC(=O)Nc1ccccc1Cl | 17.8 µM [falling, single point] | 
COc1cccc(-c2nn(C)c3sc(C(=O)N4CCN(c5ccccn5)CC4)cc23)c1 | 29.1 µM [falling, single point] | 
CSCCOC(=O)c1[nH]c2c(c1C)C(=O)CC(c1ccco1)C2 (stereo not drawn) | 3.26 µM [rising, full curve, poor fit] | 
